Measurements as given in the supplement of paper PMC12823440, “Inhibitors supercharge kinase turnover through native proteolytic circuits” (Nature, 2025).
Counter-ions that a name gives are not always drawn. The list shows a part of the results. The calls rarely recur for the same compound in another form.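 In K562 cells expressing nanoluciferase-fused kinases, luminescence was recorded at 4 h intervals between 2 and 18 h, normalized as percent of control with DMSO at 100% and a positive control at 0%. A significant (2 sigma) signal drop marks a time point as decreased. The authors' rule for a hit is not shown and takes in more than the number of time points.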

Amino acid sequences for entries named in this document (tags omitted). A change or cut given only in a name is not applied to a line headed by its entry.
UniProt P49137, whole entry, looked up: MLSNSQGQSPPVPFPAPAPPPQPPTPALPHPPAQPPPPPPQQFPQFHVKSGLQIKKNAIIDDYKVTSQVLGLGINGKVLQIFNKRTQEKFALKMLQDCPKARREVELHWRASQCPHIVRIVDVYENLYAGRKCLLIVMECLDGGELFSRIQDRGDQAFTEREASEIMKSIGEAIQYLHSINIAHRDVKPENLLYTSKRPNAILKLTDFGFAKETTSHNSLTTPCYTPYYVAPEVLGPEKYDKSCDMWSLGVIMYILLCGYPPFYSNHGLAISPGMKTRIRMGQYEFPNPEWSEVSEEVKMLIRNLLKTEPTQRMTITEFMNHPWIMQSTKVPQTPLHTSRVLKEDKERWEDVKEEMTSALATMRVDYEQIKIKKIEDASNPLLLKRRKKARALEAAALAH
UniProt Q9BUB5: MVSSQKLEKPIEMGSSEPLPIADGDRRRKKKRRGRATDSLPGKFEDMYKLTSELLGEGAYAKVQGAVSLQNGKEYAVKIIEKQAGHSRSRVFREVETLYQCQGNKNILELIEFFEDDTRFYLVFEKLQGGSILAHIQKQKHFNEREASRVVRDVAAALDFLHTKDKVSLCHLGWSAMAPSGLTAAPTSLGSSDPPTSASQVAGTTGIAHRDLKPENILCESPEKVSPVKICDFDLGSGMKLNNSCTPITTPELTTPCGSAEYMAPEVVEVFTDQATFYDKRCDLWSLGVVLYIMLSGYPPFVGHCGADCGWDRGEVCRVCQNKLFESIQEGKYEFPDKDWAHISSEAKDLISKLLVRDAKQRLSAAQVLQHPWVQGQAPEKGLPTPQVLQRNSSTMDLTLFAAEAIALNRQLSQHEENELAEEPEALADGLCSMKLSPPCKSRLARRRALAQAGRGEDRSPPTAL

Target: MAPKAPK2 (UniProt P49137)
Assay: number of time points (of 5) at which kinase-Nluc abundance scored as decreased, DMSO-normalised (count); higher = more persistent destabilization
Conditions: K562; 2-18 h

Row | Compound | number of time points
1 | CC(C)=CCC/C(C)=C/CC/C(C)=C/C=C/C(C)=C/C(=O)O [Peretinoin] (10 µM) | 0
2 | C=CC(=O)N1CC[C@@H](Oc2nc(Nc3ccc(N4CCC(N5CCN(C)CC5)CC4)cc3)c(C(N)=O)nc2CC)C1 [Naquotinib (mesylate)] (2.5 µM) | 0
3 | CC(Sc1nc2c(cnn2-c2cccc(Cl)c2)c(=O)[nH]1)C(N)=O (stereo not drawn) (10 µM) | 0
4 | Cc1cc(O)c2c(c1)C(=O)c1cccc(O)c1C2=O [Chrysophanol] (2 µM) | 0
5 | O=C1OC(/C=C/c2ccccc2)=NC/1=C\c1cccnc1 (10 µM) | 0

Target: MKNK1 (UniProt Q9BUB5)
Assay: as above
Conditions: K562; 2-18 h

Row | Compound | number of time points
6 | CN1CCN(c2cc(-c3ccncc3)c(-c3ccc4ccccc4c3)nn2)CC1 (10 µM) | 0
7 | CC(O)(C#Cc1ccc2c(c1)N(c1nc(N)ncc1Cl)CC2)c1nccs1 (stereo not drawn) (2.5 µM) | 0
8 | COc1ccc(Nc2ncc(C(F)(F)F)c(NC3CC3)n2)cc1OC (10 µM) | 0
9 | O=c1cc(N2CCOCC2)oc2c(-c3ccc4c(c3)OCCO4)csc12 (2.5 µM) | 0
10 | N[C@@H]1CCCN(c2c(/C=C3\SC(=O)NC3=O)cccc2-c2ccccc2)C1 (10 µM) | 0
11 | N#Cc1ccc(-c2cnc3[nH]cc(NC(=O)c4cccnc4)c3c2)cc1 (10 µM) | 0
12 | COc1ccc(Br)cc1NC(=O)Nc1cccc2c1ccn2Cc1ccnc(N)c1 (2.5 µM) | 0
13 | COc1cc(N2CCOCC2)ccc1Nc1ncc(F)c(Nc2ccccc2NS(C)(=O)=O)n1 (10 µM) | 0
14 | COc1ccc(-c2cc(=O)c3c(OC)cc(OC)c(OC)c3o2)cc1 [6-Demethoxytangeretin] (10 µM) | 0
15 | COc1cc2c(cc1O)C[C@H]1c3cc(O)c(OC)cc3CC[N@@+]1(C)C2 [Phellodendrine] (10 µM) | 0
16 | CO[C@H]1C[C@@H]2CC[C@@H](C)[C@@](O)(O2)C(=O)C(=O)N2CCCC[C@H]2C(=O)O[C@H]([C@H](C)C[C@@H]2CC[C@@H](OC(=O)C(C)(CO)CO)[C@H](OC)C2)CC(=O)[C@H](C)/C=C(\C)[C@@H](O)[C@@H](OC)C(=O)[C@H](C)C[C@H](C)/C=C/C=C/C=C/1C [Temsirolimus] (2.5 µM) | 0
17 | O=C(ON=C1c2ccccc2-c2nc3ccccc3nc21)c1ccco1 (2.5 µM) | 0
18 | COc1ccc(S(=O)(=O)Nc2cc(-c3c(O)ccc4ccccc34)c(O)c3ccccc23)cc1 (10 µM) | 0
19 | Cc1cccc(COc2cccc(/C=C3\C(=O)NN(c4ccccc4)C3=O)c2)c1 (10 µM) | 0
20 | CC(C)Oc1ccc(F)c(-c2cnc(N)c(C(=O)Nc3cnccc3N3CCC[C@@H](C(=O)O)C3)n2)c1 (2 µM) | 0
21 | COc1cc(F)ccc1-c1ncnc(Nc2cccc(C[S@](C)(=N)=O)c2)n1 [Atuveciclib] (2.5 µM) | 0
22 | CC(C)n1ncnc1-c1cn2c(n1)-c1ccc(O[C@@H](C)C(N)=O)cc1OCC2 (10 µM) | 0
23 | Cn1c(CNc2cccc(C(=O)NCc3ccccc3C(F)(F)F)c2)nnc1-c1ccncc1 (10 µM) | 0
24 | O=Nc1c(-c2c(O)[nH]c3cc(Br)ccc23)[nH]c2ccccc12 [GSK 3 Inhibitor IX] (2.5 µM) | 0
25 | Nc1ncc(C(=O)NC2CN(C(=O)C3CC3)C2)c2ccc(-c3cccc(F)c3)nc12 (2 µM) | 0
26 | O=C(Nc1cc(Cl)cc2c1[nH]c1cnccc12)c1cccnc1 (10 µM) | 0
27 | c1ccc(Cn2c(-c3ccc(OC[C@H](C4CCNCC4)n4c(-c5ccccc5)nc5ccccc54)cc3)nc3ccccc32)cc1 [Deltarasin] (2.5 µM) | 0
28 | COc1cc2ncnc(Nc3cccc(I)c3)c2cc1OC (2.5 µM) | 0
29 | Clc1ccc(C(c2ccc(Cl)cc2)[n+]2ccn(CC(OCc3ccc(Cl)cc3Cl)c3ccc(Cl)cc3Cl)c2)cc1 (stereo not drawn) [Calmidazolium chloride] (2.5 µM) | 3
30 | O=C(Nc1cccnc1)c1cc(-c2ccnc(F)c2)ccc1OCc1ccccc1 (10 µM) | 0
31 | c1nn(C2CCOCC2)cc1Nc1ncc2nnn(-c3ccc4cn[nH]c4c3)c2n1 (10 µM) | 0
32 | COC(=O)[C@H](CCSC)NC(=O)c1ccc(NC[C@@H](N)CS)cc1-c1ccccc1 [FTI-277 (hydrochloride)] (10 µM) | 0
33 | Cc1cc(Nc2cc(N)ncn2)c(=O)n2c1C(=O)NC21CCCCC1 [Tomivosertib] (10 µM) | 0

A different layout for some results above.

| Row | Compound | number of time points |
| --- | --- | --- |
| 23 | Cn1c(CNc2cccc(C(=O)NCc3ccccc3C(F)(F)F)c2)nnc1-c1ccncc1 (10 µM) | 0 |
| 24 | O=Nc1c(-c2c(O)[nH]c3cc(Br)ccc23)[nH]c2ccccc12 [GSK 3 Inhibitor IX] (2.5 µM) | 0 |
